The test concerns the target His6-CENP-V-eGFP (not stated (mouse Cenp-V cDNA cloned)) (UniProt Q9CXS4). In words: TIRF microscopy, particle intensity distribution and photobleaching steps; motile CENP-V-eGFP particles on the lattice of taxol-stabilised microtubules; initial intensities (n = 249) compared with the intensity loss per GFP bleaching step (n = 50); both purified.

By UniProt entry, the sequences of proteins in these tests, tags left out.
UniProt Q9CXS4: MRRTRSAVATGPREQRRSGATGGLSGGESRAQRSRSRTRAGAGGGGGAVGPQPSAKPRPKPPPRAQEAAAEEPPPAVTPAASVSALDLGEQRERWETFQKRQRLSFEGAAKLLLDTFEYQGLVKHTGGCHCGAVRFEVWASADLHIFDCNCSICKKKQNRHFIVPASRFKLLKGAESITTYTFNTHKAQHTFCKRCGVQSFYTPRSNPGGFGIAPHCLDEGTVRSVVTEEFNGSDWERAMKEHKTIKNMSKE

These are yes or no findings as the source states them, for the method shown. Some results given as binding are weak or reduced against the parent protein; the word gives no strength.

As for “His6-CENP-V-eGFP (from UniProt Q9CXS4 1-252)”, the binding entry is listed as “binds”.

The values are drawn from PMC8586017.
